Measured values reported in the supplement of paper PMC3334620.
The full ranking holds about 33,000 sequences; the median of “E-score (-0.5 to 0.5)” is about -0.0034, and the highest 2% start at about 0.25. Some of the results follow.

biological target: T1, Yap3 (UniProt P38749); assay: PBM E-score (8-mer binding enrichment) (E-score (-0.5 to 0.5)); higher = stronger / more preferred TF binding; conditions: protein concentration: 100 nM; construct: GST-full length
T1 sequence: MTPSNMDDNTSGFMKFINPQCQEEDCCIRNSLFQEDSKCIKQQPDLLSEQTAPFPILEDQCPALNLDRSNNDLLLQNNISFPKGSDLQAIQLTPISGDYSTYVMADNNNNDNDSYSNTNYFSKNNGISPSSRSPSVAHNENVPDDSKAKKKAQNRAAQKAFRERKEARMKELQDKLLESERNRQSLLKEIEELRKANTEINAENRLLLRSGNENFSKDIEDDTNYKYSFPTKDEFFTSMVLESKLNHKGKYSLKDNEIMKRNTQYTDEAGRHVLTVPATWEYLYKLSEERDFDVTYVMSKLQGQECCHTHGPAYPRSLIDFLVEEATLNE
Procedure, shortened: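 Universal all-10-mer Agilent arrays, double-stranded by primer extension on fresh or once-stripped slides, were probed with about 100-200 nM GST-tagged yeast transcription factors made by PURExpress. Fluorescent anti-GST detected bound protein, and masliner normalised the scans. E-scores from the Universal PBM Analysis Suite were given to each ungapped eight-base word pooled with its reverse complement.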

Sequence	PBM E-score
CAGATGTA	-0.00722
AACATTAT	0.177
AAGCACAG	0.0743
GGTCTTCA	-0.182
CAAGCCGA	0.0414
AAATGTAT	0.222
ACTCCGGG	0.0119
CCCTTCGC	-0.244
TCTAGCCA	-0.0743
AACAGTCG	-0.0471
AAAGCAAC	0.139
GGGGATAA	0.0811
CACTTCCA	-0.0654
AGCGCCTC	-0.176
AGTCCACA	-0.0934
ACAGTATG	0.118
CGGGTTCA	-0.221
CATATAAC	0.213
ACCCCACT	0.0383
AACAACCG	0.156
AAATATAT	0.285
CAGGACAC	-0.203
TATAATCA	0.265
ATCAACGA	0.0138

Look-ups from the entries so far:
Entry of AGTCCACA under PBM E-score: -0.0934
Entry of ATCAACGA under PBM E-score: 0.0138
Entry of AACAACCG under PBM E-score: 0.156

Carrying on.

Sequence	PBM E-score
TGCTGACA	0.105
CGCAAAAA	0.145
CAAGAATC	0.112
CGCTACTA	0.264
GCCAAGTA	-0.0708
GCAGCCGA	-0.178
GAGTGCCA	-0.203
ATAGAGAT	0.166
ATCATATC	0.193
GACAATGA	-0.172
AACACCCA	-0.0606
ACATTGCG	-0.0125
ATTCGTGA	0.161
GCGCTGTA	-0.0584
GCACGAAA	0.148
CTGATGGA	-0.145
AGAGAGAA	-0.136
AAAAGGCC	-0.103
AATCTCTG	-0.138
CAATAAAA	0.201
CCGGCTGC	-0.18
ATAGTCTC	0.164
AAAACAGT	0.153
ACAGCCCG	-0.111

Sequence	PBM E-score
ACTCAGAC	0.141
AGTACGGA	0.0777
AAAGCTTT	0.109
AGTCTGAA	0.0436
ACGCCTTG	-0.0431
CCGTTATA	0.0218
ACACAGAG	-0.0836
ACTGAGCC	-0.21
AGGACAAT	0.166
ATGCATTA	0.333
GATAGCAA	0.248
AGAGGAAA	0.0254
CTGTAGAA	0.043
AACTCCGA	-0.0161
ACTAACAG	0.315
AGTGTTAA	0.125
CCAATTAA	0.0782
AAAAACGG	0.165
GAGTCAGA	-0.00915
ACAATCCG	0.116
GGTAAAAC	0.0466
CAGGGTCA	-0.234
CACGTATC	0.0819
CTGAGCGA	-0.151

Sequence	PBM E-score
AGGGCGCA	-0.162
GAGGCCTA	-0.0891
ATGGAGGA	-0.0588
GAAGGAGA	0.123
ATAACTGG	-0.0217
AAATCCAA	0.0898
CAGAGAGA	-0.172
CAAACCTG	0.00604
GGAGAACA	0.0539
CTAGCAAG	-0.0297
AAATCGCA	0.123
AGCTAAGG	-0.191
ACCACCAC	-0.00648
AGAAATTC	0.0349
AATTATTC	0.256
CGGGGTAG	-0.0709
CAGTGCCG	-0.0957
GCAGATTA	0.079
CACAACGA	0.0195
CAAGGTGG	-0.118
CGGTTTCA	0.0528
CCTTGTGA	-0.0241
